The source of these data is article PMC12682140.

Protein sequences, listed by entry. Tags and fused reporters are not part of them.
UniProt O43597: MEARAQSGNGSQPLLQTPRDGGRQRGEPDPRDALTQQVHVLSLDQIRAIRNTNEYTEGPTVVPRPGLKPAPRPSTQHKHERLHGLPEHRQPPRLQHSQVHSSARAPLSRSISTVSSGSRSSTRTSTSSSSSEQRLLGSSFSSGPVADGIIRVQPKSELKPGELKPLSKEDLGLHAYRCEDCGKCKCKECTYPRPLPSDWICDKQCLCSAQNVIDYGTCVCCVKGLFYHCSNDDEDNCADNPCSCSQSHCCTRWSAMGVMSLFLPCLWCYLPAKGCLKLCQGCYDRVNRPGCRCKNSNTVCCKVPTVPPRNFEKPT

The target in one experiment is nL-H-RasG12V (UniProt P01112). Nature of the experiment: FRET or BRET; BRET in HEK293-EBNA cells, nanoLuc-fused donor (25 ng plasmid, constant) and mNeonGreen-fused acceptor titrated to 1:40 donor:acceptor plasmid ratio; BRETtop; also at fixed ratios with mevastatin, 2-bromopalmitate or AMG510.
A further experiment addresses mNG-SPRY2 (UniProt O43597). The description is as above.
A further experiment has as its target GFP2-C-Raf (UniProt P04049). In words: co-IP; GFP-Trap agarose pull-down of GFP2-tagged bait from HEK293-EBNA lysates (50 mM Tris pH 7.5, 150 mM NaCl, 0.5% NP-40, 2 mM EDTA, 1 mM DTT), 3 h at room temperature, Western blot. Background: A western blot detects proteins with antibodies after separation by electrophoresis.

These are yes or no findings as the source states them, for the method shown. In cells and extracts the contact can be indirect. Some binding calls cover weakened binding; strength is not graded here.

For the substance mNG-SPRY2 (from UniProt O43597 1-315), the binding entry with nL-H-RasG12V and in the experiment with mNG-SPRY2 was “binds” in each case.
Turning to “SPRY2 (endogenous) (from UniProt O43597 1-315)”, in the experiment with GFP2-C-Raf, the binding result is given as “binds”.
